Assay results taken from article PMC10740983.
No constants are given. Whether binding was seen depends on the method and setting. In cells and extracts the contact can be indirect. Some binding calls cover weakened binding; strength is not graded here. Blank lines part the entries; values can stand above or below the substance they belong to.

Sequences of proteins named here, by UniProt entry; tags and fusion partners are left off. A change or cut given only in a name is not applied to a line headed by its entry. A line that says so, or that is headed by a name, gives the form on record, which may keep a tag or linker. Residues count along the entry.
UniProt Q04206: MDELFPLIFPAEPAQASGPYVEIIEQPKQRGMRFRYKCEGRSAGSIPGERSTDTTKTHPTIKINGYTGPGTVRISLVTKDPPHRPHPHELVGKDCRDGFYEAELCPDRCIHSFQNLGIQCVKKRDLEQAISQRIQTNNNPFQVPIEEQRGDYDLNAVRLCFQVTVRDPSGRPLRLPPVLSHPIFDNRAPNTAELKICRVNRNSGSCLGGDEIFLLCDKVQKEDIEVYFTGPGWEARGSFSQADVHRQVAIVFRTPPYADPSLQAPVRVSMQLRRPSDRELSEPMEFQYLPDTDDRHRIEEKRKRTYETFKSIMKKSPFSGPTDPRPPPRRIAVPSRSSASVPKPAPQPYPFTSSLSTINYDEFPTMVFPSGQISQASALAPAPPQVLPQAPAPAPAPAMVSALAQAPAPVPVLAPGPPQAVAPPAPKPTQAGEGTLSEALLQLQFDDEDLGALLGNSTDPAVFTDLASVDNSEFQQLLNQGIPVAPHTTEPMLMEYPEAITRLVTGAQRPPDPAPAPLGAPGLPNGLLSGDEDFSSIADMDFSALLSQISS
UniProt P61586: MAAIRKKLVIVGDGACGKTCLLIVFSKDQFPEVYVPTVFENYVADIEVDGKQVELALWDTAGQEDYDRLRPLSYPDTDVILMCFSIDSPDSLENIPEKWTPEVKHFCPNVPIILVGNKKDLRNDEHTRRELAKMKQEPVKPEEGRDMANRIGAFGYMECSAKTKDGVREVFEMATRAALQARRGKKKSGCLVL
UniProt Q9QUI0: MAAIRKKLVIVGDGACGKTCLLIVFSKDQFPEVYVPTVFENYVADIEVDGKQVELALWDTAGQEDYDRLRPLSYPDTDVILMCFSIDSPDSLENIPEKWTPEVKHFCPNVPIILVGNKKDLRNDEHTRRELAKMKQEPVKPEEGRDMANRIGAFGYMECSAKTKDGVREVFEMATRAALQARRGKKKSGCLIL
PKM1 (P14618-2, form named): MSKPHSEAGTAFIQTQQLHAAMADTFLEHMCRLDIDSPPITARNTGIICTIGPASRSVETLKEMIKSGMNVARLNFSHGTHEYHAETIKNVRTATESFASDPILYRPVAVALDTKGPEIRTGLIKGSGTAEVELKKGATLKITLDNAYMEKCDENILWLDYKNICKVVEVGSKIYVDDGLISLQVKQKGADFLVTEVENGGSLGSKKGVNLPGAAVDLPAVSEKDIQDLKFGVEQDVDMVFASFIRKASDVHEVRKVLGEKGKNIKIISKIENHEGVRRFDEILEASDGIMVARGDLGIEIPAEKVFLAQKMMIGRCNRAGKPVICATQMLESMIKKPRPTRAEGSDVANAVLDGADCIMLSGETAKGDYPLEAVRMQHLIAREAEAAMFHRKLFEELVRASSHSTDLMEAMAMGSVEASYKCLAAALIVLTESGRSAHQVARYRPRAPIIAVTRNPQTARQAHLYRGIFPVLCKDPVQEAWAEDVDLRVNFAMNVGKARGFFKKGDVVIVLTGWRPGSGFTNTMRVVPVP
UniProt O75116: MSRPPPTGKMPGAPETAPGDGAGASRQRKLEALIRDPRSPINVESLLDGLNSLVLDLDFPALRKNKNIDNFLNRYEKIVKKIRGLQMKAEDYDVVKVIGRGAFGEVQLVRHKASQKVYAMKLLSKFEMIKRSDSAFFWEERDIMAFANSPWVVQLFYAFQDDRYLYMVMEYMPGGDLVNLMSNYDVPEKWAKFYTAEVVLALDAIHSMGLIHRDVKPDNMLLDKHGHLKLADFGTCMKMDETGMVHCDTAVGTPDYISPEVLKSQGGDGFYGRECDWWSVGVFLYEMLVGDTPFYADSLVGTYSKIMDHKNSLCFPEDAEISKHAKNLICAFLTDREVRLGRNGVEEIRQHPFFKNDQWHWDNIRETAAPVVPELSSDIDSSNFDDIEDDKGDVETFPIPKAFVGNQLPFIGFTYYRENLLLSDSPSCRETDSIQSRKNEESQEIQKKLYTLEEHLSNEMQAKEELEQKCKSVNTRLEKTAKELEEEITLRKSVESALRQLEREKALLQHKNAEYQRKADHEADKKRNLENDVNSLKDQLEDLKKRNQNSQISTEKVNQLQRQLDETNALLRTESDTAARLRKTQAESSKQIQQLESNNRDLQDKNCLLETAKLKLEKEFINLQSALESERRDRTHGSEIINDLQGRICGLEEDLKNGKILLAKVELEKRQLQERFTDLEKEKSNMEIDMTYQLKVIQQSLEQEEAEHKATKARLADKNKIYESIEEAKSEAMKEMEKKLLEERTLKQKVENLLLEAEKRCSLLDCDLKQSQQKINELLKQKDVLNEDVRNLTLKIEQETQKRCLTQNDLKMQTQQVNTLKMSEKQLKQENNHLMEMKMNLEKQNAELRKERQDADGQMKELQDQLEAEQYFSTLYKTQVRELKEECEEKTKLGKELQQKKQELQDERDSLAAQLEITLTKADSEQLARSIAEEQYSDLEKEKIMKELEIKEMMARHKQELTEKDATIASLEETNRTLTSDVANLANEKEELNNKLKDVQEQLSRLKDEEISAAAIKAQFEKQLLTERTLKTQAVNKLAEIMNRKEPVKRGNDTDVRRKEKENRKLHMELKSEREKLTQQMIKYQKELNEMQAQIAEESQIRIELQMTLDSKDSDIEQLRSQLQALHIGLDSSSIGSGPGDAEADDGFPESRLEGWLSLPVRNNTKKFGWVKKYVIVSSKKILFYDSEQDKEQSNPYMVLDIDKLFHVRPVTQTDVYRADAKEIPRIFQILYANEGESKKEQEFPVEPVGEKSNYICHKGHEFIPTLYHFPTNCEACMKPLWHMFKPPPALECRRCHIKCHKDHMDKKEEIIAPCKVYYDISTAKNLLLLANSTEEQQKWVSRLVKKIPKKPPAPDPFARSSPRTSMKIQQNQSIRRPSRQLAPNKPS
UniProt P25799, residues 1-431: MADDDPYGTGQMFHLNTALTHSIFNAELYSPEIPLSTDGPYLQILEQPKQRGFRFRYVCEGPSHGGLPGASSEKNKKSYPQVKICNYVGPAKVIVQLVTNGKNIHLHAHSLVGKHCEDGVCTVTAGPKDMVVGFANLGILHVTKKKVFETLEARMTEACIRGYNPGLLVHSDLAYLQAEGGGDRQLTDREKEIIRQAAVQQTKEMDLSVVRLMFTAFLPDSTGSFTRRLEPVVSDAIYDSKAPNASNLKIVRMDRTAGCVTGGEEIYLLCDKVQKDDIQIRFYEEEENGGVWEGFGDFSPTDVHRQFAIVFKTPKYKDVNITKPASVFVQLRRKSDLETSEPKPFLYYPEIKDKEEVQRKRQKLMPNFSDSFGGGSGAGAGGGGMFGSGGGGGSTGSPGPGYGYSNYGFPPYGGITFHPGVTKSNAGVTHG
UniProt P35222: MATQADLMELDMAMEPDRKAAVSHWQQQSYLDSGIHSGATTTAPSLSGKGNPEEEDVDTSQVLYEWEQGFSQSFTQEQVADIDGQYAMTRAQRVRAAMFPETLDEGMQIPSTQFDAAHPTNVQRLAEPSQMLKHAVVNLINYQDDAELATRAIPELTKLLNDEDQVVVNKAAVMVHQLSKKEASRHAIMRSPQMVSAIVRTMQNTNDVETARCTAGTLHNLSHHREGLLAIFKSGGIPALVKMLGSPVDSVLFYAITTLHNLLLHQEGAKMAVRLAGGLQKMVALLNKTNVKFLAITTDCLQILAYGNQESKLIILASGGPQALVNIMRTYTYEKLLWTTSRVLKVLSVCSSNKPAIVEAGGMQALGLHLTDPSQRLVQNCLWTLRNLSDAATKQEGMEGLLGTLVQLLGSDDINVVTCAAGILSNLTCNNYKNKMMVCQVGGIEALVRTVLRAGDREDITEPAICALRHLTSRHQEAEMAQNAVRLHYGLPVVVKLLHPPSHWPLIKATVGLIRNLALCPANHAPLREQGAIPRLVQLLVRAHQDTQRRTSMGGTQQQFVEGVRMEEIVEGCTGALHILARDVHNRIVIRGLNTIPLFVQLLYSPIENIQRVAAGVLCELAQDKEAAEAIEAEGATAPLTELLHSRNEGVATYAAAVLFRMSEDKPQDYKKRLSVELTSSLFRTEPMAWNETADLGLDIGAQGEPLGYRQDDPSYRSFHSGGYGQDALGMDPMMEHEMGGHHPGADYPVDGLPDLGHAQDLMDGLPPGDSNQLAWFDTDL

What was measured:
[1] = target: T1, phosphoglycerate kinase 1 (human (endogenous in HEK293T)) (UniProt P00558); experiment: co-IP; immunoprecipitation of PGK1 from HEK293T lysates, without or with LPS (Figure 6D); Western blot
T1 sequence: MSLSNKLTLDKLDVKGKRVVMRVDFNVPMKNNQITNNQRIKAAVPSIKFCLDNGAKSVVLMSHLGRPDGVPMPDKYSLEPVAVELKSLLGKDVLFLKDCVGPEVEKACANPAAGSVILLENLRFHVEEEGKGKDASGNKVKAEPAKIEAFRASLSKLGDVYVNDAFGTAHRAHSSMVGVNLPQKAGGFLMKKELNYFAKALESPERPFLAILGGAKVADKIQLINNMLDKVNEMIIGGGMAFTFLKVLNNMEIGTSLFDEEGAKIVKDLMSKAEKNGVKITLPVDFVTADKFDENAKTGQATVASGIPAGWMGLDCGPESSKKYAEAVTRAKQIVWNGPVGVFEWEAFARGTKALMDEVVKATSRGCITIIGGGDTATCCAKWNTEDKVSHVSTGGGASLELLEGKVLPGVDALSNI

[2] = target: p-Ser536 p65/RelA (HEK293T) (human (endogenous in HEK293T)) (UniProt Q04206); experiment: co-IP; immunoprecipitation with p-p65 antibodies from HEK293T lysates, serum-free 8 h, LPS 10 μg/mL 4 h (Figure 5D); Western blot
[3] = target: p-Tyr42 RhoA (HEK293T) (human (endogenous in HEK293T)) (UniProt P61586); experiment: co-IP; immunoprecipitation with p-Tyr42 RhoA antibodies from HEK293T lysates, without or with LPS (Figure 2F; Figure 5E: 10 μg/mL LPS, 4 h); Western blot
[4] = target: p-Tyr42 RhoA (4T1, RAW264.7) (mouse (endogenous in 4T1 and RAW264.7)) (UniProt Q9QUI0); experiment: co-IP; immunoprecipitation with p-Tyr42 RhoA antibodies from 4T1 lysates, without or with LPS (Figure 2G); Western blot
[5] = target: HA-RhoA WT (UniProt P61586); experiment: co-IP; immunoprecipitation with HA antibodies from HEK293T cells transfected with HA-p65 or HA-RhoA constructs (2 μg/mL, 24 h), serum-depleted 8 h, stimulated with LPS (Figure 2I,J); Western blot
[6] = target: HA-RhoA Y42E (UniProt P61586); experiment: as above
[7] = target: HA-p65 S536D (human) (UniProt Q04206); experiment: as above
[8] = target: HA-p65 WT (human) (UniProt Q04206); experiment: as above

- binding [1]: binds
Substance: PKM1 (from UniProt P14618-2 1-531) (enzyme)

- binding [1]: binds
Substance: PKM2 (from UniProt P14618-1 1-531) (enzyme)

- binding [2]: binds
- binding [3]: binds
Substance: ROCK2 (from UniProt O75116 1-1388) (enzyme)

- binding [4]: binds
Substance: p50 (4T1) (from UniProt P25799 1-431)

- binding [3]: binds
- binding [5]: binds
- binding [6]: binds
Substance: p-Ser536 p65/RelA (HEK293T) (from UniProt Q04206 1-551)

- binding [7]: binds
- binding [8]: binds
Substance: p-Tyr42 RhoA (HEK293T) (from UniProt P61586 1-193)

- binding [1]: binds
Substance: β-catenin (from UniProt P35222 1-781)
